Laboratory results published in patent publication US10428106B2, “Phosphate replacement mRNA cap analogs” (ModernaTX, Inc., priority 2015, dated 2019).

Test: Co-transcriptional capping of hEPO mRNA by in vitro transcription (capping fraction)
Conditions: fraction of hEPO mRNA capped, used for normalization; Table 7

| SMILES | capping %/100 |
| --- | --- |
| CO[C@@H]1[C@H](O)[C@@H](COP(=O)(O)OP(=O)(O)OP(=O)(O)OC[C@H]2O[C@@H]([n+]3cn(C)c4c(=O)[nH]c(N)nc43)[C@H](O)[C@@H]2O)O[C@H]1n1cnc2c(=O)[nH]c(N)nc21 [Cap1, m7GpppG(2′-Om)] | 1 |
| CO[C@H]1[C@@H](O)[C@H](n2c[n+](C)c3c(=O)[nH]c(N)nc32)O[C@@H]1COP(=O)(O)OP(=O)(O)OP(=O)(O)OC[C@H]1O[C@@H](n2cnc3c(=O)[nH]c(N)nc32)[C@H](O)[C@@H]1O [ARCA] | 0.86 |
